Laboratory results: patent US20040109854A1 (published 2004)

Key:
[1] = biological target: T1, full length TRAF6 fused to the GAL4 DNA binding domain (pM-TRAF6 full length, expressed in 293/EBNA cells) (yeast; human, UniProt P04386 1-147; Q9Y4K3 1-522); assay: mammalian two-hybrid assay, luciferase reporter, 293/EBNA cells
T1 construct: Mammalian two-hybrid construct; also called TRAF6-fusion protein

[2] = biological target: T2, DNA binding domain of GAL4 (pGBT9 vector, empty bait) (yeast, UniProt P04386 1-147); assay: yeast two-hybrid, filter β-galactosidase assay, empty bait vector
T2 construct: Control bait

[3] = biological target: Full length TRAF 2 (amino acid 1-501) in bait vector pGBT9 (yeast, UniProt P04386 1-147; Q12933 1-501); assay: yeast two-hybrid, filter β-galactosidase assay
[4] = biological target: Full length TRAF 3 (amino acid 1-569) in bait vector pGBT9 (yeast, UniProt P04386 1-147; Q13114 1-568); assay: yeast two-hybrid, filter β-galactosidase assay
[5] = biological target: TRAF 3 dm (amino acid 1-268) in bait vector pGBT9 (yeast, UniProt P04386 1-147; Q13114 1-268); assay: yeast two-hybrid, filter β-galactosidase assay

Row | Binder | binding result [1] | binding result [2] | binding result [3] | binding result [4] | binding result [5]
1 | full length TRAF6-inhibiting protein fused to the VP16 transcription activation domain (pVP16-TBZF, expressed in 293/EBNA cells) (other, Mammalian two-hybrid construct) MGLLTFRDVAIEFSLEEWQCLDTAQRNLCKNVILENYRNLVFLGIAVSKQDLITCLEQEKEPLTVKRHEMVNEPPVMCSHFAQEFWPEQNIKDSFEKVTLRRYEKCGNDNFQLKGCKSVDECKVHKGGYNGLNQCLPTMQSKMFQCDEYVKVFNKFSHSDRHKIKHMENKPFKCKECGRSFCMLSHLTRHERNYTKVNFCKCEECEKAVNQSSKLTKHKRIYTCEKLYKCQECDRTFNQFSNLTEYKKDYAREKPYKCEECGKAFNQSSHLTTHKIIHTGEKPYKCEECGKASNQFSNLTTHKKIHTGEQPYICEECGKAFTQSSTLTTHKRIHTGEKPYKCEECGKAFNRSSKLTEHKNIHTGEQPYKCEECGKAFNRSSNLTEHRKIHTEEKPYKCKECGKAFKHSSALTTHKRIHTGEKPYKCEECGKAFNRSSKLTEYKKLHTGKKPYKCEECGKAFIQSSKLTEHKKIHSGEIPYKCEECGKAFKHSSSLTTHKRIHTGEKPYKCEECSKAFSRSSKLTEHKIIHTGEKPYECERCDKAFNQSANLTKHKKIHTGEKLQNWNV | binds |  |  |  | 
2 | recombinant TRAF6-inhibiting protein fused with the transcription activation domain of GAL4 (full length cDNA in pGAD424, expressed in yeast Y190) (other, not shown: large carriers, also called TBZF) MGLLTFRDVAIEFSLEEWQCLDTAQRNLCKNVILENYRNLVFLGIAVSKQDLITCLEQEKEPLTVKRHEMVNEPPVMCSHFAQEFWPEQNIKDSFEKVTLRRYEKCGNDNFQLKGCKSVDECKVHKGGYNGLNQCLPTMQSKMFQCDEYVKVFNKFSHSDRHKIKHMENKPFKCKECGRSFCMLSHLTRHERNYTKVNFCKCEECEKAVNQSSKLTKHKRIYTCEKLYKCQECDRTFNQFSNLTEYKKDYAREKPYKCEECGKAFNQSSHLTTHKIIHTGEKPYKCEECGKASNQFSNLTTHKKIHTGEQPYICEECGKAFTQSSTLTTHKRIHTGEKPYKCEECGKAFNRSSKLTEHKNIHTGEQPYKCEECGKAFNRSSNLTEHRKIHTEEKPYKCKECGKAFKHSSALTTHKRIHTGEKPYKCEECGKAFNRSSKLTEYKKLHTGKKPYKCEECGKAFIQSSKLTEHKKIHSGEIPYKCEECGKAFKHSSSLTTHKRIHTGEKPYKCEECSKAFSRSSKLTEHKIIHTGEKPYECERCDKAFNQSANLTKHKKIHTGEKLQNWNV |  | no binding | no binding | no binding | no binding
